From publication PMC11224344 come the findings set out here.

Protein sequences, listed by entry. Tags and fused reporters are not part of them. Lines headed by an entry give the natural chain unless they say otherwise; changes in a name come on top.
UniProt Q9GZQ6: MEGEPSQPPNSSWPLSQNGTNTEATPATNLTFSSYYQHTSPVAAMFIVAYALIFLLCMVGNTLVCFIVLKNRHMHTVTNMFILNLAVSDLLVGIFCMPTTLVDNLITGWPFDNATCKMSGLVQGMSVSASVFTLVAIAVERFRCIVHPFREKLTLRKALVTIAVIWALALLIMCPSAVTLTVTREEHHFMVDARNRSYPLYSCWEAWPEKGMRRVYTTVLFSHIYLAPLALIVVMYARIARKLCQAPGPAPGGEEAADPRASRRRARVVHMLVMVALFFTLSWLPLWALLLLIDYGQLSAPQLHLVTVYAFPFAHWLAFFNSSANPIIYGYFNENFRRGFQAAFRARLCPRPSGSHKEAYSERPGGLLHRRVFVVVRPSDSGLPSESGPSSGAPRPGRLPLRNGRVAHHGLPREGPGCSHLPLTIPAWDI
UniProt Q9Y5X5: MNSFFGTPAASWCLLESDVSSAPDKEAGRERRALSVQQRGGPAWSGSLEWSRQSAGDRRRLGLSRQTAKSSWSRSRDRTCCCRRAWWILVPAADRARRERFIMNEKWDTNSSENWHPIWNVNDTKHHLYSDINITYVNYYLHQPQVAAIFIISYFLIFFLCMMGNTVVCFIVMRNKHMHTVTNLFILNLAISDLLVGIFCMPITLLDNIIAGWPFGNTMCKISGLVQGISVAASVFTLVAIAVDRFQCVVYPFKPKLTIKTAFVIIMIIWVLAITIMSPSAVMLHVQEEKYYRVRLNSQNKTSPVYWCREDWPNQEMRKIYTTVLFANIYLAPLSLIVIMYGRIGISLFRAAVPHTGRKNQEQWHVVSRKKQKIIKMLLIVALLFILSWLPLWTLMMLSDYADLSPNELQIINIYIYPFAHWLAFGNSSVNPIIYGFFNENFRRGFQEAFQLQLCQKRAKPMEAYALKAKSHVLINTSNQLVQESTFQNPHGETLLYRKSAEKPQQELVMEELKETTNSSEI
UniProt P21728: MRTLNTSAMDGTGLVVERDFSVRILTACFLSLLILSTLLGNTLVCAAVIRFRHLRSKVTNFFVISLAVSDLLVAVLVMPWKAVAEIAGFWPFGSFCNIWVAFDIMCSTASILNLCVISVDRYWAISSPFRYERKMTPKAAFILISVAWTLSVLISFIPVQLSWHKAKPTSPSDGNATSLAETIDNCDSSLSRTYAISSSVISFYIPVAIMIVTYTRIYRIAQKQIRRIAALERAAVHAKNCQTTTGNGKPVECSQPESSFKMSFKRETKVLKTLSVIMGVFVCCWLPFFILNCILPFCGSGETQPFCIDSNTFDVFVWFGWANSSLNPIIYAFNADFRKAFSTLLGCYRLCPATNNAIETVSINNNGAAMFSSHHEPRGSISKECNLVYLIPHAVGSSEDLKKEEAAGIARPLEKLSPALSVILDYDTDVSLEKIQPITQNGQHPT
UniProt P21918: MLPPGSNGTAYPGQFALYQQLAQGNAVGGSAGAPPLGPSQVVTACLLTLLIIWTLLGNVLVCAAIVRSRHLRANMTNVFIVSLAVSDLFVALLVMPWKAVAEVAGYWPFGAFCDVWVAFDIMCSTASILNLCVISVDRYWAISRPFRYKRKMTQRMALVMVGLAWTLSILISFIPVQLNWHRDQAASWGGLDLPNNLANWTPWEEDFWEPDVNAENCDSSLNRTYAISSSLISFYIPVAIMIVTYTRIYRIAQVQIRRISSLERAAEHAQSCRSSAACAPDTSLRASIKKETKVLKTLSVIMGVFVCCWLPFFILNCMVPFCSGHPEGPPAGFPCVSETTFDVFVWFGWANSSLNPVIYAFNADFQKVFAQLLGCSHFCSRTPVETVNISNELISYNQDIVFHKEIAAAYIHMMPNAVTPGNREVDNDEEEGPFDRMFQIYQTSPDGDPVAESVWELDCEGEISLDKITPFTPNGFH

These are yes or no findings as the source states them, for the method shown. In cells and extracts the contact can be indirect. Some binding calls cover weakened binding; strength is not graded here.

Test [1] addresses Neuropeptide FF receptor NPFF-R1 (human (endogenous in hRPTCs)) (UniProt Q9GZQ6). The test is described as follows: co-IP; hRPTC lysates immunoprecipitated with anti-NPFF-R1 or anti-NPFF-R2 antibodies coupled to Dynabeads, 4 h at 4 °C; eluted, SDS-PAGE, immunoblotted with anti-D1R or anti-D5R; normal IgG as negative control; lysis buffer 20 mM Tris-HCl pH 8.0, 1 mM EDTA, 1 mM NaN3, 2 mM DTT, 0.25 M sucrose.

Test [2] addresses Neuropeptide FF receptor NPFF-R2 (human (endogenous in hRPTCs)) (UniProt Q9Y5X5). Described as above.
The target in test [3] is Neuropeptide FF receptor NPFF-R1 (human (endogenous in hRPTCs)) (UniProt Q9GZQ6). The test is described as follows: co-IP; unpublished observation, in hRPTCs; no details given.
Test [4] concerns the target Neuropeptide FF receptor NPFF-R2 (human (endogenous in hRPTCs)) (UniProt Q9Y5X5). The description is as above.

Take “Dopamine D1 receptor (D1R) (from UniProt P21728 1-446)”: the binding entry in test [1] and in test [2] was “binds” in each case.
With “angiotensin type I receptor (from UniProt P30556 1-359)”, the binding result in test [3] and in test [4] was “binds” in each case.
For the substance “Dopamine D5 receptor (D5R) (from UniProt P21918 1-477)”, the results for the binding entry in test [1] and in test [2] were “binds” and “no binding”, respectively.
